Experimental data published in the supplement of paper PMC9254222.
In all, about 1,100 compounds were measured (“Wnt reporter firefly/Renilla luciferase ratio relative to plate median”: median about 1.1, highest 2% from about 1.6 on). Only a part is listed here, and it is no random draw.

Test system: HEK293T (UBE3A T485A transfected, BAR Wnt reporter)
Assay: Wnt reporter firefly/Renilla luciferase ratio relative to plate median (fold (linear ratio)); higher = more Wnt/beta-catenin reporter activation
Details: 24 h
In short: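 Wnt activity (firefly/Renilla ratio) and cell health (raw Renilla) were read with Dual-Glo luciferase and median-centred plate by plate. HEK293T cells, at 4500 cells/well in white 384-well plates with DMEM plus 10% FBS at 37°C and 5% CO2, carried a transfected BAR firefly luciferase Wnt reporter, TK-Renilla and an expression plasmid. The chemicals were applied by robot at 0.01–100 uM for 24 h, beginning four hours after transfection, and results were averaged across four biological replicates.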

| Structure (SMILES) | Wnt reporter firefly/Renilla luciferase ratio (concentration: 0.1 uM) | Wnt reporter firefly/Renilla luciferase ratio (concentration: 1 uM) | Wnt reporter firefly/Renilla luciferase ratio (concentration: 10 uM) | Wnt reporter firefly/Renilla luciferase ratio (concentration: 100 uM) | Wnt reporter firefly/Renilla luciferase ratio (concentration: 0.01 uM) |
| --- | --- | --- | --- | --- | --- |
| C[N+](C)(C)CC1CO1.[Cl-] (stereo unspecified) [N,N,N-Trimethyl(oxiran-2-yl)methanaminium chloride] | 1.01 | 0.868 | 0.986 | 1.09 |  |
| O=C1c2ccccc2C(=O)N1SC(Cl)(Cl)Cl [Folpet] | 1.49 | 1.05 | 1.32 |  | 1.22 |
| COC(=O)c1ccccc1N [Methyl 2-aminobenzoate] | 1.23 | 1.02 | 1.1 | 1.31 |  |
| Clc1ccc(C(c2ccc(Cl)cc2)C(Cl)Cl)cc1 | 0.983 | 0.999 | 0.984 | 1.16 |  |
| COc1nc(NC(C)C)nc(NC(C)C)n1 [Prometon] | 0.926 | 0.714 | 0.868 | 0.852 | 0.425 |
| O=C(Nc1ccccc1)c1ccccc1I [Benodanil] | 1.01 | 0.967 | 1.06 | 0.746 |  |
| CC(C)N(Cc1ccccc1)C(=O)C(C)(C)C [Butam] | 1.15 | 0.958 | 1.06 | 0.891 |  |
| ClC1=C(Cl)C(Cl)(Cl)C(Cl)=C1Cl [Hexachlorocyclopentadiene] | 1.24 | 0.958 | 1.02 | 0.638 |  |
| Cc1cccc(N)c1 [3-Methylaniline] | 0.716 | 0.904 | 0.784 | 1.19 |  |
| CCOP(=S)(Oc1cnc(C(C)(C)C)nc1)OC(C)C (stereo unspecified) [Tebupirimfos] | 0.858 | 1.02 | 0.965 | 1.03 | 0.786 |
| COCc1cnc(C2=NC(C)(C(C)C)C(=O)N2)c(C(=O)O)c1 (stereo unspecified) [Imazamox] | 1.07 | 0.743 | 1.21 | 1.14 | 1.07 |
| CCOP(=S)(OCC)Oc1ccc([N+](=O)[O-])cc1 [Parathion] | 1.45 | 1.28 | 1.44 | 1.3 | 1.18 |
| N#Cc1c(Cl)cccc1Cl [Dichlobenil] | 1.42 | 1.16 | 0.907 | 1.29 | 1.31 |
| OCCN(CCO)CCO [Triethanolamine] | 1.25 | 1.19 | 1.02 | 0.749 |  |
| CC(C)NC(=O)N1CC(=O)N(c2cc(Cl)cc(Cl)c2)C1=O [Iprodione] | 1.33 | 1.06 | 1.06 | 0.922 | 1.18 |
| CCCCOC(=O)[C@@H](C)Oc1ccc(Oc2ccc(C#N)cc2F)cc1 [Cyhalofop-butyl] | 0.959 | 1.06 | 0.848 | 0.697 | 1.1 |
| CC1(C)C(C(=O)OC(C#N)c2cccc(Oc3ccccc3)c2)C1(C)C (stereo unspecified) [Fenpropathrin] | 1.23 | 1.04 | 1.04 | 0.149 | 1.05 |
| CCOP(=S)(OCC)SCCSCC [Disulfoton] | 1.2 | 1.3 | 1.19 | 1.43 | 1.38 |

Part of the list above, reduced to Wnt reporter firefly/Renilla luciferase ratio (concentration: 10 uM) and Wnt reporter firefly/Renilla luciferase ratio (concentration: 1 uM).

| Structure (SMILES) | Wnt reporter firefly/Renilla luciferase ratio (concentration: 10 uM) | Wnt reporter firefly/Renilla luciferase ratio (concentration: 1 uM) |
| --- | --- | --- |
| ClC1=C(Cl)C(Cl)(Cl)C(Cl)=C1Cl [Hexachlorocyclopentadiene] | 1.02 | 0.958 |
| Cc1cccc(N)c1 [3-Methylaniline] | 0.784 | 0.904 |
